Drawing on doi:10.1101/2024.05.08.593233, this text covers binding for two molecules.

Assay in all cases: co-IP
For assay [1], the target named is T1, Rubicon (509–972) (human) (UniProt Q92622).
T1 sequence: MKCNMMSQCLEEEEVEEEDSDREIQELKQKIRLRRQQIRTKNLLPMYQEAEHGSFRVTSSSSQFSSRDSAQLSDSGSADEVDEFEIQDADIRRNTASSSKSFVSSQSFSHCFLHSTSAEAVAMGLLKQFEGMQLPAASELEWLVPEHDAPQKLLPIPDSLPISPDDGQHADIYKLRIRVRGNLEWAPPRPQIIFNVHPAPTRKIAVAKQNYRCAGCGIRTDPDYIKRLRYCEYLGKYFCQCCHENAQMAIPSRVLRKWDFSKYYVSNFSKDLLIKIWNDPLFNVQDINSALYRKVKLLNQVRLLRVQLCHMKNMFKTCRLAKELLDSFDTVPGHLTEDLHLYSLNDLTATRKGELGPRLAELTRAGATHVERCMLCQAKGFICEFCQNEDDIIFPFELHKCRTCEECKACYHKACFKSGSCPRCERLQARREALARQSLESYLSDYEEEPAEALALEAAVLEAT

Assay [2] concerns the target T2, 3×FLAG-Rubicon (1-625, 761–972) (human) (UniProt Q92622).
T2 sequence: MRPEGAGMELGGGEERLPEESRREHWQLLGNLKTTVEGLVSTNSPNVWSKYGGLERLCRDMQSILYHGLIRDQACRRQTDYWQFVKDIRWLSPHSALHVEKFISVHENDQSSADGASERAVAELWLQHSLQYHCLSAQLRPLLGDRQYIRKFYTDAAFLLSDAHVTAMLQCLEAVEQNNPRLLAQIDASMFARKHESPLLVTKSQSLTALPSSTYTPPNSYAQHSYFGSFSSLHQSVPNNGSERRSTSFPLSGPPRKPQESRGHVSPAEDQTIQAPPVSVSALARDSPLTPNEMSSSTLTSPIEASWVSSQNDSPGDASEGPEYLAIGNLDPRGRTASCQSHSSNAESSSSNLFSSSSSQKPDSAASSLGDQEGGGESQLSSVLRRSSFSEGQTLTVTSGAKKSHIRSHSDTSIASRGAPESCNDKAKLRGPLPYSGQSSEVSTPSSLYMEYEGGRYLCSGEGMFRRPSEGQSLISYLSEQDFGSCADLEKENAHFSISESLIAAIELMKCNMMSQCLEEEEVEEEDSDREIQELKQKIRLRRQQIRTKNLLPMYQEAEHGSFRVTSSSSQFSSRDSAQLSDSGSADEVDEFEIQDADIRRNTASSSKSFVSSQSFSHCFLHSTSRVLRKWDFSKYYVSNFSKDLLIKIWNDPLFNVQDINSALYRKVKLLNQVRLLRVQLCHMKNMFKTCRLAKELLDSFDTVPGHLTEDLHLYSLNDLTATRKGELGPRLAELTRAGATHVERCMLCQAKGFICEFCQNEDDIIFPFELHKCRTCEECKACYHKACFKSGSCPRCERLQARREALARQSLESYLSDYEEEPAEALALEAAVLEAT

The target of assay [3] is T3, 3×FLAG-Rubicon (1–698) (human) (UniProt Q92622).
T3 sequence: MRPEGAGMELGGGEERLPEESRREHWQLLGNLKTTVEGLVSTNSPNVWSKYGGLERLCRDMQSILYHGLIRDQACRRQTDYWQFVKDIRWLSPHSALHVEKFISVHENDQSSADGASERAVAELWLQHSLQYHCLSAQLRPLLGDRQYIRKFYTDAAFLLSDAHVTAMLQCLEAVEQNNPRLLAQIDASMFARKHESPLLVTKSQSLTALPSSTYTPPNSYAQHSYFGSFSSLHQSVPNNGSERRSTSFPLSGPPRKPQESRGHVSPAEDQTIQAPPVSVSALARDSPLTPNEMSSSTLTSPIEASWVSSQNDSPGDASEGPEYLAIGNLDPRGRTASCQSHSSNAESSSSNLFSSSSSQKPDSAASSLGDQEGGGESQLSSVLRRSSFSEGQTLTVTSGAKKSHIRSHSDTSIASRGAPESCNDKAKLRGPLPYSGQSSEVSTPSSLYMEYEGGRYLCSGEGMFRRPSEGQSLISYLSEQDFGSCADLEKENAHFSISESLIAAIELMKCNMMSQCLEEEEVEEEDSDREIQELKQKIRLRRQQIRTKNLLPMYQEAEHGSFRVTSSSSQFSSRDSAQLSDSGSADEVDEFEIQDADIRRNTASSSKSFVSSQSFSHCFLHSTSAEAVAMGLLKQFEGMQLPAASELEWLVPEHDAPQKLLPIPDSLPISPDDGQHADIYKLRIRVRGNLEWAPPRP

Results are given in words; binding and its absence hold for the method and conditions named. Binding seen in cells or lysates may run through a third protein. Some results given as binding are weak or reduced against the parent protein; the word gives no strength. Tags and fused reporters may be left off the sequences shown.

B1: HA-WIPI2d (protein, UniProt Q9Y4P8-2 1-425)
chain: MNLASQSGEAGAGQLLFANFNQDNTSLAVGSKSGYKFFSLSSVDKLEQIYECTDTEDVCIVERLFSSSLVAIVSLKAPRKLKVCHFKKGTEICNYSYSNTILAVKLNRQRLIVCLEESLYIHNIRDMKVLHTIRETPPNPAGLCALSINNDNCYLAYPGSATIGEVQVFDTINLRAANMIPAHDSPLAALAFDASGTKLATASEKGTVIRVFSIPEGQKLFEFRRGVKRCVSICSLAFSMDGMFLSASSNTETVHIFKLETVKEKPPEEPTTWTGYFGKVLMASTSYLPSQVTEMFNQGRAFATVRLPFCGHKNICSLATIQKIPRLLVGAADGYLYMYNLDPQEGGECALMKQHRLDGSLETTNEILDSASHDCPLVTQTYGAAAGKAYTDDLGAVGGACLEDEASALRLDEDSEHPPMILRTD
In the case of B1, the binding entry is recorded as “binds” in assay [1], “no binding” in assay [2] and “binds” in assay [3].

B2: endogenous WIPI2 (HEK293T) (protein, UniProt Q9Y4P8 1-454)
chain: MNLASQSGEAGAGQLLFANFNQDNTEVKGASRAAGLGRRAVVWSLAVGSKSGYKFFSLSSVDKLEQIYECTDTEDVCIVERLFSSSLVAIVSLKAPRKLKVCHFKKGTEICNYSYSNTILAVKLNRQRLIVCLEESLYIHNIRDMKVLHTIRETPPNPAGLCALSINNDNCYLAYPGSATIGEVQVFDTINLRAANMIPAHDSPLAALAFDASGTKLATASEKGTVIRVFSIPEGQKLFEFRRGVKRCVSICSLAFSMDGMFLSASSNTETVHIFKLETVKEKPPEEPTTWTGYFGKVLMASTSYLPSQVTEMFNQGRAFATVRLPFCGHKNICSLATIQKIPRLLVGAADGYLYMYNLDPQEGGECALMKQHRLDGSLETTNEILDSASHDCPLVTQTYGAAAGKGTYVPSSPTRLAYTDDLGAVGGACLEDEASALRLDEDSEHPPMILRTD
Turning to B2, the binding entry is on record as “binds” in assay [1], “no binding” in assay [2] and “binds” in assay [3].
